Results reported in PubChem BioAssay AID493014 (National Center for Advancing Translational Sciences (NCATS), 2011).
This is one part of the list. Shown are side measurements of this screen, not its main read-out; they come without a call. Most of these compounds were active or inconclusive in the main read-out, so they are no random draw. Words in brackets tell the shape of the fitted curve; partial curves, single points and poor fits give uncertain potencies.

Experiment: qHTS Assay to Find Inhibitors of Chronic Active B-Cell Receptor Signaling
Settings: ABC-DLBCL IkBa-CBG/CBR reporter, luminescence ratio (green luciferase fused to IkBa over red control in TMD8 lymphoma cells), 4 h
In short: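 TMD8 human ABC-DLBCL cells with doxycycline-inducible IκBα–green luciferase fusion and unfused red luciferase, in 0.5% FBS medium; compounds up to 46 uM, 4 h at 37C. Green/red luminescence ratio, filter-overlap corrected, fitted to concentration-response curves.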

[1] = measured here: CBR red luminescence, cell number
[2] = measured here: IkBa-CBG green luminescence

Row | SMILES | AC50 [1] | AC50 [2]
1 | CCN(CC)C(=O)c1sc2c(c1C)c(=O)n(Cc1ccccc1)c(=O)n2Cc1ccc(Cl)cc1 | 3.16 µM [falling, partial curve] | 
2 | O=C1Nc2cc(C(=O)N3CCC(N4CCCCC4)CC3)ccc2S/C1=C\c1ccccc1 | 35.5 µM [falling, single point] | 
3 | CC1(C)CSC(=NCCc2ccccc2)N1 | 0.282 µM [rising, full curve, poor fit] | 
4 | Cc1cc(C(F)(F)F)n(-c2nc(C(=O)NNS(=O)(=O)c3ccccc3[N+](=O)[O-])cs2)n1 | 35.5 µM [falling, single point] | 
5 | Fc1ccc(C2Nc3cccc4cccc(c34)N2)cc1 | 35.5 µM [falling, single point] | 
6 | CC(=O)c1ccc2noc(-c3ccccc3)c2c1 |  | 15.8 µM [rising, partial curve, poor fit]
7 | CCOC(=O)c1sc(NC(=O)c2cccs2)cc1C | 0.0651 µM [falling, full curve, poor fit] | 
8 | COc1cc(/C=N/n2c(SC)nnc(C(C)(C)C)c2=O)ccc1O | 1.58 µM [rising, partial curve, poor fit] | 
9 | COc1ccc(OCC2CCCN(Cc3nc(CC4CC4)no3)C2)cc1 (stereo unspecified) | 11.2 µM [falling, single point] | 
10 | COC(=O)CCc1sc(Nc2ccccc2)nc1-c1ccc(OC)cc1 | 0.517 µM [falling, full curve, poor fit] | 
11 | CC(=O)Nc1ccc(NC(=O)C(C)OC(=O)c2cc(S(=O)(=O)N(C)C)ccc2N2CCCC2)cc1 (stereo unspecified) | 23.1 µM [rising, partial curve] | 
12 | Cn1nnc2c(NCCc3ccccc3)ncnc21 | 35.5 µM [falling, single point] | 
13 | CCCN(CCC)CCCNC(=O)c1cc2c(=O)n(C)c3ccccc3c2n1C | 14.1 µM [falling, partial curve, poor fit] | 
14 | O=C(NNC(=S)Nc1cccc(C(F)(F)F)c1)c1cccc(Cl)c1 | 32.6 µM [falling, single point] | 
15 | Cc1ccc2nc3c(cc2c1)c(NC(=O)c1ccco1)nn3CC(C)C | 0.501 µM [falling, full curve] | 
16 | Cc1cc(C)cc(NS(=O)(=O)c2ccc(Oc3ncc(C(F)(F)F)cc3Cl)cc2)c1 | 20.6 µM [falling, single point] | 
17 | O=C(CSc1nnc(-c2ccccn2)o1)Nc1ccc(F)cc1 | 5.62 µM [falling, partial curve] | 
18 | O=C(C1CCCO1)N1CCN(S(=O)(=O)c2ccc(F)cc2)CC1 (stereo unspecified) | 1.03 µM [falling, partial curve, poor fit] | 
19 | Cc1ccc(CNC(=O)C2CCN(S(=O)(=O)N3CCC4(CC3)OCCO4)CC2)cc1 | 29.1 µM [rising, single point] | 
20 | COc1cccc(/C=C2\SC(=S)N(CCC(=O)NC3C=CS(=O)(=O)C3)C2=O)c1 (stereo unspecified) | 10 µM [falling, partial curve] | 
21 | COc1ccc(NC(=O)CC2SC(=O)NC2=O)cc1 (stereo unspecified) | 0.112 µM [rising, full curve, poor fit] | 

Row | SMILES | AC50 [1] | AC50 [2]
22 | CC(C)COC(=O)n1c(SCC(N)=O)nc2ccccc21 | 10 µM [falling, partial curve, poor fit] | 
23 | O=C(COC(=O)c1cc([N+](=O)[O-])ccc1NCc1ccccc1)NC1CCCc2ccccc21 (stereo unspecified) | 6.51 µM [rising, single point] | 
24 | CCN(CC(=O)NCc1cccs1)S(=O)(=O)c1ccccc1Cl | 23.1 µM [falling, partial curve, poor fit] | 
25 | COC(=O)C(=C/C(C)=C/c1cccs1)C(=O)OC | 35.5 µM [falling, single point] | 
26 | CC(=O)N(CCc1ccccc1)Cc1cc2cc(C)ccc2[nH]c1=O | 17.8 µM [rising, single point] | 
27 | Cc1ccc(-c2[nH]c3cc(C(=O)NCCCn4ccnc4)ccc3c(=O)c2O)cc1 | 1.78 µM [falling, full curve, poor fit] | 
28 | CN1C(=O)c2ccc(C(=O)Nc3ccccc3O)cc2C1=O | 8.91 µM [falling, partial curve] | 
29 | Cc1cc(-c2nc3ncccc3o2)ccc1NC(=O)CC(C)C | 1.64 µM [falling, full curve, poor fit] | 
30 | CCCCCCCNC(=O)COc1ccc2c(c1)C(=O)CC(C)(C)O2 | 29.1 µM [rising, single point] | 
31 | CN(C(=O)CSc1nc2scc(-c3ccccc3)c2c(=O)[nH]1)c1ccccc1 | 0.13 µM [falling, full curve, poor fit] | 
32 | N#CCC(=O)Nc1ccc(C(=O)OCC(=O)Nc2ccccc2-c2ccccc2)cc1 | 35.5 µM [falling, single point] | 
33 | O=C(Cc1cccc2ccccc12)N/N=C/c1ccc(O)c([N+](=O)[O-])c1 | 31.6 µM [falling, single point] | 
34 | O=C(Nc1ccccc1C(=O)O)c1cccc(NC(=O)c2ccc(Br)o2)c1 | 23.1 µM [falling, single point] | 
35 | COc1ccc(C(=O)N2CCCC(O)C2)cc1OC1CCN(C(C)C)CC1 (stereo unspecified) | 2 µM [falling, partial curve, poor fit] | 
36 | Cc1cc(N/N=C/c2ccccc2)nc(NCc2ccccc2)n1 | 11.6 µM [rising, partial curve, poor fit] | 32.6 µM [falling, partial curve, poor fit]
37 | CCOc1ccc(Cl)cc1C1=CC(=O)C[C@H](c2ccc(OC)cc2)C1 | 1.3 µM [falling, full curve, poor fit] | 5.8 µM [falling, partial curve, poor fit]
38 | CCCc1nc2c(nnn2Cc2ccccc2F)c(=O)[nH]1 | 29.1 µM [falling, single point] | 
39 | Cc1cccc(NC(=O)c2oc(=O)c3ccccc3c2-c2ccccc2)c1C | 8.2 µM [rising, partial curve] | 
40 | COc1ccccc1NC(=S)NC1CCCCCC1 | 2.06 µM [rising, partial curve, poor fit] | 
41 | Cc1ccc(-c2nc3ccccc3c(=O)o2)cc1 | 7.94 µM [falling, partial curve, poor fit] | 
42 | O=C(N/N=C/c1ccc(O)cc1)c1cncc(Br)c1 | 20 µM [falling, single point] | 

Row | SMILES | AC50 [1] | AC50 [2]
43 | O=C(NNC(=O)c1cc2ccccc2o1)c1ccc(Cl)cc1 | 5.01 µM [falling, full curve, poor fit] | 
44 | CCOc1ccc2[nH]c(=O)c(CN(Cc3ccco3)C(CC)c3nnnn3Cc3ccccc3)cc2c1 (stereo unspecified) | 35.5 µM [falling, single point] | 
45 | COC(=O)c1ccc(NC(=O)N2CCCC(C(=O)c3ccccc3OC)C2)cc1 (stereo unspecified) | 0.398 µM [falling, full curve, poor fit] | 
46 | CN1CCN(NC(=O)c2cn(-c3ccccc3)nc2-c2cccc(Br)c2)CC1 | 31.6 µM [falling, single point] | 
47 | c1ccc(CSc2nnc(-c3cccs3)n2Cc2ccco2)cc1 | 2.59 µM [falling, partial curve, poor fit] | 
48 | COc1ccc(/C=C(\C#N)C(=O)OCCNC(=O)c2ccncc2)cc1 | 0.501 µM [falling, partial curve, poor fit] | 
49 | Cc1ccc(NC(=O)COC(=O)C2CC2C)c(S(=O)(=O)N2CCCCC2)c1 (stereo unspecified) | 0.562 µM [rising, full curve, poor fit] | 
50 | COc1ccc(C2C(C#N)=C(N)N(c3ncn[nH]3)C3=C2C(=O)CCC3)cc1 (stereo unspecified) | 1.26 µM [rising, full curve, poor fit] | 
51 | CCOc1ccc(NC(=O)Nc2ccccc2C(N)=O)cc1 | 17.8 µM [falling, partial curve, poor fit] | 
52 | Cc1c(Cl)cccc1NC(=O)CN1CCN(CCN=CC2=C(O)CC(c3ccccc3)CC2=O)CC1 (stereo unspecified) | 2.51 µM [falling, partial curve, poor fit] | 
53 | Cc1ccc(OCC(=O)N/N=C/C=C/c2ccco2)c(Br)c1 | 12.6 µM [rising, single point] | 14.1 µM [falling, partial curve, poor fit]
54 | Nc1ccc(C(=O)N2N=C(c3ccccc3)CC2(O)C(F)(F)F)cc1 (stereo unspecified) | 0.891 µM [falling, full curve, poor fit] | 
55 | CC(=O)c1cccc(NC(=O)CNC(=O)c2cc3ccccc3o2)c1 | 20 µM [rising, partial curve, poor fit] | 
56 | O=C(CN1c2ccccc2Sc2ccccc21)NNC(=O)Nc1ccc(Cl)cc1 | 7.08 µM [falling, partial curve] | 
57 | CCN(CC(=O)Nc1c(F)cccc1F)C(=O)C1=COCCO1 | 16.4 µM [rising, single point] | 
58 | Cn1c(/N=C/c2ccc3c(c2)OCO3)nc2ccccc21 | 17.8 µM [rising, partial curve, poor fit] | 
59 | CC1CCCC(NC(=O)COC(=O)Cc2ccc(Br)cc2)C1C (stereo unspecified) | 35.5 µM [rising, single point] | 
60 | Oc1ccc(-c2cnns2)c(O)c1 | 25.9 µM [falling, partial curve, poor fit] | 
61 | CCCCN(CC)S(=O)(=O)N1CCC(C(=O)NCc2ccc(F)cc2)CC1 | 2.91 µM [rising, partial curve] | 
62 | Cc1cc(C)c(NC(=O)CSc2nnc(CNC(=O)c3c(F)cccc3Cl)o2)c(C)c1 | 4.47 µM [rising, full curve, poor fit] | 
63 | O=C1CCc2cc(NS(=O)(=O)c3ccc(F)cc3)cc3c2N1CC3 | 11.6 µM [falling, partial curve, poor fit] | 

Some of the entries so far, in markdown.

| Row | SMILES | AC50 [1] | AC50 [2] |
| --- | --- | --- | --- |
| 43 | O=C(NNC(=O)c1cc2ccccc2o1)c1ccc(Cl)cc1 | 5.01 µM [falling, full curve, poor fit] |  |
| 44 | CCOc1ccc2[nH]c(=O)c(CN(Cc3ccco3)C(CC)c3nnnn3Cc3ccccc3)cc2c1 (stereo unspecified) | 35.5 µM [falling, single point] |  |
| 45 | COC(=O)c1ccc(NC(=O)N2CCCC(C(=O)c3ccccc3OC)C2)cc1 (stereo unspecified) | 0.398 µM [falling, full curve, poor fit] |  |
| 46 | CN1CCN(NC(=O)c2cn(-c3ccccc3)nc2-c2cccc(Br)c2)CC1 | 31.6 µM [falling, single point] |  |
| 47 | c1ccc(CSc2nnc(-c3cccs3)n2Cc2ccco2)cc1 | 2.59 µM [falling, partial curve, poor fit] |  |
| 48 | COc1ccc(/C=C(\C#N)C(=O)OCCNC(=O)c2ccncc2)cc1 | 0.501 µM [falling, partial curve, poor fit] |  |
| 49 | Cc1ccc(NC(=O)COC(=O)C2CC2C)c(S(=O)(=O)N2CCCCC2)c1 (stereo unspecified) | 0.562 µM [rising, full curve, poor fit] |  |
| 50 | COc1ccc(C2C(C#N)=C(N)N(c3ncn[nH]3)C3=C2C(=O)CCC3)cc1 (stereo unspecified) | 1.26 µM [rising, full curve, poor fit] |  |
| 51 | CCOc1ccc(NC(=O)Nc2ccccc2C(N)=O)cc1 | 17.8 µM [falling, partial curve, poor fit] |  |
| 52 | Cc1c(Cl)cccc1NC(=O)CN1CCN(CCN=CC2=C(O)CC(c3ccccc3)CC2=O)CC1 (stereo unspecified) | 2.51 µM [falling, partial curve, poor fit] |  |
| 53 | Cc1ccc(OCC(=O)N/N=C/C=C/c2ccco2)c(Br)c1 | 12.6 µM [rising, single point] | 14.1 µM [falling, partial curve, poor fit] |
| 54 | Nc1ccc(C(=O)N2N=C(c3ccccc3)CC2(O)C(F)(F)F)cc1 (stereo unspecified) | 0.891 µM [falling, full curve, poor fit] |  |
| 55 | CC(=O)c1cccc(NC(=O)CNC(=O)c2cc3ccccc3o2)c1 | 20 µM [rising, partial curve, poor fit] |  |
| 56 | O=C(CN1c2ccccc2Sc2ccccc21)NNC(=O)Nc1ccc(Cl)cc1 | 7.08 µM [falling, partial curve] |  |
| 57 | CCN(CC(=O)Nc1c(F)cccc1F)C(=O)C1=COCCO1 | 16.4 µM [rising, single point] |  |
| 58 | Cn1c(/N=C/c2ccc3c(c2)OCO3)nc2ccccc21 | 17.8 µM [rising, partial curve, poor fit] |  |
